Experimental data taken from the supplement of paper PMC8728848.
Some of the results follow.

Assays:
Experiment in all cases: glycan array binding signal (z-score within array); higher = stronger binding
Settings in all cases: glycan notation: IUPAC condensed, linker removed
[1] = target: Gal(a1-3)Gal(b1-4)GlcNAc(b1-2)Man
Method in brief: (§1)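 Columns mapping to the same glycan were averaged after glycan names were converted to IUPAC-condensed notation. The data come from 3228 arrays in the Consortium for Functional Glycomics database, limited to those with an available protein sequence. Binding is reported as a within-array Z-score averaged across arrays of one protein sequence and across linkers.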

[2] = target: Gal(a1-3)Gal(b1-4)GlcNAc(b1-2)Man(a1-3)[Gal(a1-3)Gal(b1-4)GlcNAc(b1-2)Man(a1-6)]Man(b1-4)GlcNAc(b1-4)GlcNAc
Method in brief: as §1

[3] = target: Gal(a1-3)Gal(b1-4)GlcNAc(b1-3)GalNAc
Method in brief: as §1

[4] = target: Gal(a1-3)Gal(b1-4)GlcNAc(b1-6)GalNAc
Method in brief: as §1

[5] = target: Gal(a1-3)Gal(b1-4)[Fuc(a1-3)]GlcNAc
Method in brief: as §1

[6] = target: Gal(a1-3)Gal(b1-4)[Fuc(a1-3)]GlcNAc(b1-2)Man(a1-3)[Gal(a1-3)Gal(b1-4)[Fuc(a1-3)]GlcNAc(b1-2)Man(a1-6)]Man(b1-4)GlcNAc(b1-4)GlcNAc
Method in brief: as §1

Gal(a1-3)GalNAc = target: Gal(a1-3)GalNAc
Method in brief: as §1

[7] = target: Gal(a1-3)[Gal(a1-4)]Gal(b1-4)GlcNAc
Method in brief: as §1

[8] = target: Gal(a1-4)Gal(b1-3)GlcNAc(b1-2)Man(a1-3)[Gal(a1-4)Gal(b1-3)GlcNAc(b1-2)Man(a1-6)]Man(b1-4)GlcNAc(b1-4)GlcNAc
Method in brief: as §1

Gal(a1-4)Gal(b1-4)Glc = target: Gal(a1-4)Gal(b1-4)Glc
Method in brief: as §1

Gal(a1-4)Gal(b1-4)GlcNAc = target: Gal(a1-4)Gal(b1-4)GlcNAc
Method in brief: as §1

[9] = target: Gal(a1-4)Gal(b1-4)GlcNAc(b1-2)Man(a1-3)[Gal(a1-4)Gal(b1-4)GlcNAc(b1-2)Man(a1-6)]Man(b1-4)GlcNAc(b1-4)GlcNAc
Method in brief: as §1

[10] = target: Gal(a1-4)Gal(b1-4)GlcNAc(b1-3)Gal(b1-4)Glc
Method in brief: as §1

Gal(a1-4)GlcNAc = target: Gal(a1-4)GlcNAc
Method in brief: as §1

Gal(a1-6)Glc = target: Gal(a1-6)Glc
Method in brief: as §1

Gal(b1-2)Gal = target: Gal(b1-2)Gal
Method in brief: as §1

Gal(b1-3)Gal = target: Gal(b1-3)Gal
Method in brief: as §1

Gal(b1-3)Gal(b1-4)GlcNAc = target: Gal(b1-3)Gal(b1-4)GlcNAc
Method in brief: as §1

Gal(b1-3)GalNAc = target: Gal(b1-3)GalNAc
Method in brief: as §1

[11] = target: Gal(b1-3)GalNAc(a1-3)[Fuc(a1-2)]Gal(b1-4)Glc
Method in brief: as §1

[12] = target: Gal(b1-3)GalNAc(a1-3)[Fuc(a1-2)]Gal(b1-4)GlcNAc
Method in brief: as §1

Gal(b1-3)GalNAc(b1-3)Gal = target: Gal(b1-3)GalNAc(b1-3)Gal
Method in brief: as §1

[13] = target: Gal(b1-3)GalNAc(b1-3)Gal(a1-4)Gal(b1-4)Glc
Method in brief: as §1

[14] = target: Gal(b1-3)GalNAc(b1-4)Gal(b1-4)Glc
Method in brief: as §1

[15] = target: Gal(b1-3)GalNAc(b1-4)[Neu5Ac(a2-3)]Gal(b1-4)Glc
Method in brief: as §1

Gal(b1-3)GlcNAc = target: Gal(b1-3)GlcNAc
Method in brief: as §1

[16] = target: Gal(b1-3)GlcNAc(a1-3)Gal(b1-4)GlcNAc
Method in brief: as §1

[17] = target: Gal(b1-3)GlcNAc(a1-6)Gal(b1-4)GlcNAc
Method in brief: as §1

Gal(b1-3)GlcNAc(b1-2)Man = target: Gal(b1-3)GlcNAc(b1-2)Man
Method in brief: as §1

[18] = target: Gal(b1-3)GlcNAc(b1-2)Man(a1-3)[Gal(b1-3)GlcNAc(b1-2)Man(a1-6)]Man(b1-4)GlcNAc(b1-4)GlcNAc
Method in brief: as §1

[19] = target: Gal(b1-3)GlcNAc(b1-2)Man(a1-3)[Gal(b1-3)GlcNAc(b1-2)Man(a1-6)]Man(b1-4)GlcNAc(b1-4)[Fuc(a1-6)]GlcNAc
Method in brief: as §1

[20] = target: Gal(b1-3)GlcNAc(b1-2)Man(a1-3)[GlcNAc(b1-4)][Gal(b1-3)GlcNAc(b1-2)Man(a1-6)]Man(b1-4)GlcNAc(b1-4)GlcNAc
Method in brief: as §1

[21] = target: Gal(b1-3)GlcNAc(b1-2)[Gal(b1-3)GlcNAc(b1-6)]Man(a1-6)[Gal(b1-3)GlcNAc(b1-2)Man(a1-3)]Man(b1-4)GlcNAc(b1-4)GlcNAc
Method in brief: as §1

[22] = target: Gal(b1-3)GlcNAc(b1-3)Gal(b1-3)GlcNAc
Method in brief: as §1

[23] = target: Gal(b1-3)GlcNAc(b1-3)Gal(b1-4)Glc
Method in brief: as §1

[24] = target: Gal(b1-3)GlcNAc(b1-3)Gal(b1-4)GlcNAc
Method in brief: as §1

[25] = target: Gal(b1-3)GlcNAc(b1-3)Gal(b1-4)GlcNAc(b1-2)Man(a1-3)[Gal(b1-3)GlcNAc(b1-3)Gal(b1-4)GlcNAc(b1-2)Man(a1-6)]Man(b1-4)GlcNAc(b1-4)GlcNAc
Method in brief: as §1

B1: SspB A3vp1 (Streptococcus gordonii), Q54186 (protein)
chain: MTNEADYQAKLAAYQTELARVQKANADAKATYEKAVEDNKAKNAAIKAENEEIKQRNAVAKTDYEAKLAKYEADLAKYKKEFAAYTAALAEAESKKKQDGYLSEPRSQSLNFKSEPNAIRTIDSSVHQYGQQELDALVKSWGISPTNPDRKKSRAYSYFNAINSNNTYAKLVLEKDKPVDVTYTGLKNSSFNGKKISKVVYTYTLKETGFNDGTKMTMFASSDPTVTAWYNDYFTSTNINVKVKFYDEEGQLMNLTGGLVNFSSLNRGNGSGAIDKDAIESVRNFNGRYIPISGSSIKIHENNSAYADSSNAEKSLGARWNTSEWDTTSSPNNWYGAIVGEITQSEISFNMASSKSGNIWFAFNSNINAIGVPTKPVAPTAPTQPMYETEKPLEPAPVAPSYENEPTPPVKTPDQPEPSKPAAALEHHHHHH
glycan array binding signal (z-score) [1]: -0.441
glycan array binding signal (z-score) [2]: 1.84
glycan array binding signal (z-score) [3]: -0.466
glycan array binding signal (z-score) [4]: -0.506
glycan array binding signal (z-score) [5]: -0.242
glycan array binding signal (z-score) [6]: 1.43
glycan array binding signal (z-score) (Gal(a1-3)GalNAc): -0.575
glycan array binding signal (z-score) [7]: 0.649
glycan array binding signal (z-score) [8]: 1.38
glycan array binding signal (z-score) (Gal(a1-4)Gal(b1-4)Glc): -0.053
glycan array binding signal (z-score) (Gal(a1-4)Gal(b1-4)GlcNAc): 0.692
glycan array binding signal (z-score) [9]: 1.45
glycan array binding signal (z-score) [10]: -0.588
glycan array binding signal (z-score) (Gal(a1-4)GlcNAc): -0.706
glycan array binding signal (z-score) (Gal(a1-6)Glc): -0.898
glycan array binding signal (z-score) (Gal(b1-2)Gal): -0.602
glycan array binding signal (z-score) (Gal(b1-3)Gal): -0.282
glycan array binding signal (z-score) (Gal(b1-3)Gal(b1-4)GlcNAc): 0.679
glycan array binding signal (z-score) (Gal(b1-3)GalNAc): -0.285
glycan array binding signal (z-score) [11]: 0.485
glycan array binding signal (z-score) [12]: -0.984
glycan array binding signal (z-score) (Gal(b1-3)GalNAc(b1-3)Gal): 0.434
glycan array binding signal (z-score) [13]: 1.92
glycan array binding signal (z-score) [14]: -0.915
glycan array binding signal (z-score) [15]: -0.461
glycan array binding signal (z-score) (Gal(b1-3)GlcNAc): -0.432
glycan array binding signal (z-score) [16]: 0.081
glycan array binding signal (z-score) [17]: -0.305
glycan array binding signal (z-score) (Gal(b1-3)GlcNAc(b1-2)Man): 0.698
glycan array binding signal (z-score) [18]: 2.64
glycan array binding signal (z-score) [19]: 1.42
glycan array binding signal (z-score) [20]: 1.02
glycan array binding signal (z-score) [21]: 1.46
glycan array binding signal (z-score) [22]: 0.122
glycan array binding signal (z-score) [23]: -0.232
glycan array binding signal (z-score) [24]: -0.438
glycan array binding signal (z-score) [25]: 0.853
